Holding throughout (test): ELISA; enzyme immunoassay; microtiter plates coated with 100 nM BMP-2, BMP-4 or BMP-7, blocked with 1% skim milk in PBS; gremlin-1-Fc 10 nM added (with or without 500 nM GRE1 antibody); detected with HRP-conjugated IgG-Fc specific antibody and ABTS; triplicate; both purified
In general terms: In an ELISA, binding on a coated surface is turned into a signal by an enzyme label.

For one experiment, the target named is T1, BMP-2 (UniProt P12643).
T1 sequence: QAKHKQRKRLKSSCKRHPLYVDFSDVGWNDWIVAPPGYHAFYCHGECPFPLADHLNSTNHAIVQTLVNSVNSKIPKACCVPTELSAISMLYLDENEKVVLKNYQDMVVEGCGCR

A further experiment deals with T2, BMP-4 (UniProt P12644).
T2 sequence: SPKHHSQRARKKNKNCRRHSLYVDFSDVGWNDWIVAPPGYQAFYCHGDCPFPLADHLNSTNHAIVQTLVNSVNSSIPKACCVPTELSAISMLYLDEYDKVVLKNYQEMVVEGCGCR

A further experiment addresses T3, BMP-7, P18075.
T3 chain: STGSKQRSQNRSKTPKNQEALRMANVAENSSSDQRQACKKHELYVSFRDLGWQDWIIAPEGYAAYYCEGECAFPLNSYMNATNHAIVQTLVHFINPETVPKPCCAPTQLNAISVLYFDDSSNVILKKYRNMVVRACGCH
The note with it: remark: other sources report otherwise.

These are yes or no findings as the source states them, for the method shown. Some results given as binding are weak or reduced against the parent protein; the word gives no strength. Sequences can lack the tags named with a protein.

B1: gremlin-1-Fc fusion protein (Fc fusion, UniProt O60565 25-184)
chain: KKKGSQGAIPPPDKAQHNDSEQTQSPQQPGSRNRGRGQGRGTAMPGEEVLESSQEALHVTERKYLKRDWCKTQPLKQTIHEEGCNSRTIINRFCYGQCNSFYIPRHIRKEEGSFQSCSFCKPKKFTTMMVTLNCPELQPPTKKKRVTRVKQCRCISIDLD
For the molecule B1, the binding entry with BMP-2 and with BMP-4 was “binds” in each case.

B2: gremlin-1-Fc fusion protein, O60565 25-184 (Fc fusion)
chain: B1 chain
On to B2, for which, in the experiment with BMP-7, P18075, the binding result was “no binding (tested: 10 nM)”.

The values are drawn from paper PMC3325980.
